Measurements: paper doi:10.1101/770669

The chains behind the UniProt entries cited, without tags or fusion partners. Where a name states a change or a piece, a line headed by the entry shows the natural chain unless it says otherwise.
UniProt Q9NS69: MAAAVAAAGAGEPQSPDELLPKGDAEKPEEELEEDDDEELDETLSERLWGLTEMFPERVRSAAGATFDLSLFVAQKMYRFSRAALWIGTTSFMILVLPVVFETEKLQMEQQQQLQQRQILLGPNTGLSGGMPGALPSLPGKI
UniProt O43169: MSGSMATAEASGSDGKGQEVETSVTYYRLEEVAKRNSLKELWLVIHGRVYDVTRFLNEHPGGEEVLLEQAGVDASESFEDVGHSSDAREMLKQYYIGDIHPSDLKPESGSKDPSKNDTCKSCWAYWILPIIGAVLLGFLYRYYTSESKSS

Target: translocase of outer mitochondrial membrane 22 homolog (yeast) (TOMM22), VF1-tagged bait (human) (UniProt Q9NS69)
Assay: split reporter

“CYB5B, VF2-tagged prey (from UniProt O43169)” was tested. Which binding did it give?
Its binding is “binds”.

Results are given in words; binding and its absence hold for the method and conditions named. Binding seen in cells or lysates may run through a third protein. A result given as binding can be weak or reduced; the word gives no strength.
